For test [1], the target named is T1, Setdb2 (endogenous) (mouse (endogenous in BMDMs and whole wounds)) (UniProt Q8C267).
T1 sequence: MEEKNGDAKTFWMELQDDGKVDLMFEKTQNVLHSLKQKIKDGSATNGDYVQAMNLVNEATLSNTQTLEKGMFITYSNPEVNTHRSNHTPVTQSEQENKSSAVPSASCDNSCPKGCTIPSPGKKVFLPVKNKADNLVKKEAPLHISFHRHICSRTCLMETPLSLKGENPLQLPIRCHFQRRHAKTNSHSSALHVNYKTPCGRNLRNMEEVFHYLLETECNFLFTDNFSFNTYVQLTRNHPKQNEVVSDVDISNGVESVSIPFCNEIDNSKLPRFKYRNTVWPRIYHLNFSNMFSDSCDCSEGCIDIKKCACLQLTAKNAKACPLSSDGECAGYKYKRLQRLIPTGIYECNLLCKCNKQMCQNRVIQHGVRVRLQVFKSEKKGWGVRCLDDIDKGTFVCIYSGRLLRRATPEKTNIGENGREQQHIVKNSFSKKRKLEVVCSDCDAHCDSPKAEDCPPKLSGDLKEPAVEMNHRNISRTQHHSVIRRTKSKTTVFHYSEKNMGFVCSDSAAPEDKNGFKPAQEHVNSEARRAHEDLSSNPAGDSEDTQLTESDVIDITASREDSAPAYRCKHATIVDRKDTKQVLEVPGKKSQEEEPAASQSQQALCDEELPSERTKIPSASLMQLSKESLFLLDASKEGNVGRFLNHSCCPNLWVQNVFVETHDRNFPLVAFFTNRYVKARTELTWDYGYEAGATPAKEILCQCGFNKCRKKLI
As to the kind of experiment: co-IP; SETDB2 antibody (5 μg) on Protein G Dynabeads, RIPA lysate of BMDMs, overnight at 4°C; Western blot for RelA; BMDMs untreated or treated with the Stat3 inhibitor cryptotanshinone (1 μM), Stat3-deficient (Stat3fl/fl Lyz2Cre+) or Cre-negative, with or without IFN-β (10 U/mL, 4 hours). A general note: In western blotting, separated proteins are transferred to a membrane and probed.

Protein sequences, listed by entry. Tags and fused reporters are not part of them.
UniProt Q04207: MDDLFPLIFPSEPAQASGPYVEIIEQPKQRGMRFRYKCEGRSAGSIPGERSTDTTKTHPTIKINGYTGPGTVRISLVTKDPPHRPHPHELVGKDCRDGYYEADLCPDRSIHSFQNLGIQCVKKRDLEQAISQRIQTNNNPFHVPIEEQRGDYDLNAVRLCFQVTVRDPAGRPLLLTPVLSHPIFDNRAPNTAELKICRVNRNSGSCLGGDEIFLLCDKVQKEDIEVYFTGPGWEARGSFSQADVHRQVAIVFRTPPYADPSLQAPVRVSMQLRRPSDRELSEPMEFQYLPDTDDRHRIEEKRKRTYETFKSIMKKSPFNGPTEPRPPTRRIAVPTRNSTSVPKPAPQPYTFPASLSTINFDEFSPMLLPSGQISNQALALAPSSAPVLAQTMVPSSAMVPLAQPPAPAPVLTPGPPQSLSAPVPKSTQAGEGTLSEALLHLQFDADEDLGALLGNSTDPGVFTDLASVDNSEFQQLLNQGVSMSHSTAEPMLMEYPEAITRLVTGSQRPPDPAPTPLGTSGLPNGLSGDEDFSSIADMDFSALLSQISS
UniProt P42227: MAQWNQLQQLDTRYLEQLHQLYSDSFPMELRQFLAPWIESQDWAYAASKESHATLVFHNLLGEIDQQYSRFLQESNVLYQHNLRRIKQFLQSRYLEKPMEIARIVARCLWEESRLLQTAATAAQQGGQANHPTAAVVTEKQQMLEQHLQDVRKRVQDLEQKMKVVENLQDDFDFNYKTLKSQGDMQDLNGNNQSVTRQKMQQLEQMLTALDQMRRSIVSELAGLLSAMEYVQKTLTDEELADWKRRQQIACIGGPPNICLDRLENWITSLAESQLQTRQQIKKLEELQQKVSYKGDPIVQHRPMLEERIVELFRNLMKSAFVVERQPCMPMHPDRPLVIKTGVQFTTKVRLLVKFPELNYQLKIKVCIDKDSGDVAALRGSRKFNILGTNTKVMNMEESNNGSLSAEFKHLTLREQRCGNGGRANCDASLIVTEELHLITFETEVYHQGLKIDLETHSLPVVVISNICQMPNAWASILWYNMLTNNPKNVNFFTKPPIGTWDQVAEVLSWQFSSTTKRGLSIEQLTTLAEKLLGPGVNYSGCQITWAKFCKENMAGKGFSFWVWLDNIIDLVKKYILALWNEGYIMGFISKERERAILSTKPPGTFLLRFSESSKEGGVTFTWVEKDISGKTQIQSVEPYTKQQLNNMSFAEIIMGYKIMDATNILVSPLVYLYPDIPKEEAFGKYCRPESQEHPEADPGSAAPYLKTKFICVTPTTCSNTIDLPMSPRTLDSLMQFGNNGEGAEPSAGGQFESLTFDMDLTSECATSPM

Test [2] addresses T2, Recombinant GST-SETDB2 fusion protein (UniProt Q96T68).
T2 sequence: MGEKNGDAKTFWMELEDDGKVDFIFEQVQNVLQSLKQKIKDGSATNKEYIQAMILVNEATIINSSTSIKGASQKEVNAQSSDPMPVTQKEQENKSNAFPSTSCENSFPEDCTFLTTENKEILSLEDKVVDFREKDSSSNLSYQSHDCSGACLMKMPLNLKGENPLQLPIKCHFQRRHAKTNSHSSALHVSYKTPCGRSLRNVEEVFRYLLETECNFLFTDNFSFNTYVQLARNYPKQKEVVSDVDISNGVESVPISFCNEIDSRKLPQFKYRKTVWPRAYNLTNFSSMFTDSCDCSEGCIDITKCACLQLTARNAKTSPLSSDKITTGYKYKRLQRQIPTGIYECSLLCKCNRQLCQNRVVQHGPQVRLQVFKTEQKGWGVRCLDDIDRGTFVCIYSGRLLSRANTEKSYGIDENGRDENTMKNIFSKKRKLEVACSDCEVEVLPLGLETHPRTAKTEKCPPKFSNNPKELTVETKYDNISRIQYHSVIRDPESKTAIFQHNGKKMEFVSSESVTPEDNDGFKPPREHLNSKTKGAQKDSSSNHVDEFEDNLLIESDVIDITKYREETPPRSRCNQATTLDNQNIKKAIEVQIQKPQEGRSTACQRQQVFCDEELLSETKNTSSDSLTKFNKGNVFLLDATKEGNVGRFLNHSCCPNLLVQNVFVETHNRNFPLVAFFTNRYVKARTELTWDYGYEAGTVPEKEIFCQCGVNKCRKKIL
As to the kind of experiment: pull-down; 20 μg GST-SETDB2 on GST Sepharose beads, incubated with 500 μg BMDM lysate overnight at 4°C; washed 3× in RIPA buffer and 1× in TBS; Western blot; only the target purified.

For test [3], the target named is T1, Setdb2 (endogenous) (mouse (endogenous in BMDMs and whole wounds)). Briefly: co-IP; SETDB2 antibody on Protein G Dynabeads, whole wound lysates of ND and DIO mice, day 5 after wounding; Western blot for Stat3.

These results are taken from article PMC11530128.

These are yes or no findings as the source states them, for the method shown. In cells and extracts the contact can be indirect. Some results given as binding are weak or reduced against the parent protein; the word gives no strength. For some of these results: Tags and fused reporters may be left off the sequences shown.

Regarding “NF-κB component p65 (RELA) (from UniProt Q04207 1-549)”, the binding entry in test [1] and in test [2] was “binds” each time.

On to STAT3 (from UniProt P42227 1-770), for which the binding entry in test [2] and in test [3] was “binds” in each case.
